The record followed here is US20020198143A1 (Human Genome Sciences, published 2002).

This test concerns the target T1, B7-H2 expressed on transfected 293 cells (UniProt O75144).
T1 sequence (looked up): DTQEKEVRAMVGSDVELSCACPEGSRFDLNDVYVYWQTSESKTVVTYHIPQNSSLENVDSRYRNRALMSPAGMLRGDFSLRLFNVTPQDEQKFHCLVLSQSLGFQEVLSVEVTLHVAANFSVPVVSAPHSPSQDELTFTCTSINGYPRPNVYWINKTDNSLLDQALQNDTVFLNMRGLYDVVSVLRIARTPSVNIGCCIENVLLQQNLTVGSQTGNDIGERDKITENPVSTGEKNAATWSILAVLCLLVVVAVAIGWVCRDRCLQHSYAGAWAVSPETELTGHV
As to the kind of experiment: FACS on 293 cells transfected with B7-H2.

These are yes or no findings as the source states them, for the method shown. Some entries that bind do so weakly or less than the wild type.

B1: ICOSIg (Fc fusion, UniProt Q9Y6W8 21-140, looked up)
chain: EINGSANYEMFIFHNGGVQILCKYPDIVQQFKMQLLKGGQILCDLTKTKGSGNTVSIKSLKFCHSQLSNNSVSFFLYNLDHSHANYYFCNLSIFDPPPFKVTLTGGYLHIYESQLCCQLK
notes: extracellular domain; not shown: Fc constant region of mouse IgG2a, inferred from 'similar methods'
B1: the binding entry is “binds”.
